Results are given in words; binding and its absence hold for the method and conditions named. Some results given as binding are weak or reduced against the parent protein; the word gives no strength. Each block holds one binder with its values, some of them ahead of it.
Columns and labels:
[1] = target: T1, APOL1-G1 (S342G, I384M) (human) (UniProt O14791); assay: flow cytometry, live iAPOL1-G1 CHO cells; antibody named in paragraph 192
T1 sequence: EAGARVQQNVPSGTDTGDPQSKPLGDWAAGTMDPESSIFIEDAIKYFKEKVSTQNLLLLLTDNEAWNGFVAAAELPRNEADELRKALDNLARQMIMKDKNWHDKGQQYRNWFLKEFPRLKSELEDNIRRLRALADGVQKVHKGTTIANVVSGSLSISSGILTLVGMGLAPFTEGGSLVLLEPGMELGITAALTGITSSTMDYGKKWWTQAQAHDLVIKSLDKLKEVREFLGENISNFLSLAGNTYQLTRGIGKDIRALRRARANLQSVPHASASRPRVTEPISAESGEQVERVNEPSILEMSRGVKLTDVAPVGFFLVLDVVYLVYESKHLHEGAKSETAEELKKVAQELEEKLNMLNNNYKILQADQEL

[2] = target: T2, gD-MAD-SRA-ID-GPI (construct d) (human) (UniProt O14791); assay: flow cytometry, live CHO cells expressing the construct, 5 µg/ml
T2 sequence (chain, C-terminal GPI anchor): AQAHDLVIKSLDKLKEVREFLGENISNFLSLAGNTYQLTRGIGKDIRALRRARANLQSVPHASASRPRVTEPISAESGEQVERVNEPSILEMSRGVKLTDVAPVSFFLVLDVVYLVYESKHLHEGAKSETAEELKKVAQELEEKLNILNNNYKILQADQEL

[3] = target: T1, APOL1-G1 (S342G, I384M) (human); assay: western blot of transfected COS lysates
[4] = target: APOL1-G2 (deletion of N388 and Y389) (human) (UniProt O14791); assay: western blot of transfected COS lysates
[5] = target: T1, APOL1-G1 (S342G, I384M) (human); assay: western blot of transfected COS lysates, 2 µg/ml
[6] = target: APOL1-G2 (deletion of N388 and Y389) (human) (UniProt O14791); assay: western blot of transfected COS lysates, 2 µg/ml
[7] = target: T3, gD-PFD-MAD-GPI (construct c) (human) (UniProt O14791); assay: flow cytometry, live CHO cells expressing the construct, 5 µg/ml
T3 sequence (chain, C-terminal GPI anchor): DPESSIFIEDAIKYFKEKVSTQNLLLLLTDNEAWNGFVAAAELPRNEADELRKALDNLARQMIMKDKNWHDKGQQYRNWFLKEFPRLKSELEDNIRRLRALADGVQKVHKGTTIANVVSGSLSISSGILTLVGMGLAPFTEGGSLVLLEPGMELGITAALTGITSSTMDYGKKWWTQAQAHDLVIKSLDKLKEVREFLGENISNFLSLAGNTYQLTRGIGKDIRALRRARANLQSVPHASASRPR

[8] = target: T1, APOL1-G1 (S342G, I384M) (human); assay: western blot of CHO lysates, 2.5 µg/ml
[9] = target: APOL1-G2 (deletion of N388 and Y389) (human) (UniProt O14791); assay: western blot of CHO lysates, 2.5 µg/ml

binding [3]: binds
binding [4]: binds
B3: rabbit monoclonal antibody 5.17D12 (antibody, V domains shown)
VH: QSLEESGGDLVKPGASLTLTCTASGFSFSSNYYMCWVRQAPGKGLEWIACVYVGSGGSTYYASWAKGRFTFSKTSSTTWTLQMTSLTAADTATYFCARDLSYAGDLWGPGTLVTVSS
VL: DPVMTQTPASVSEPVGGTVTINCQASESISSYLAWYQQKPGQPPKLLIYGASNLASGVPSRFKGSGSGTEYTLTISDLECDDAATYYCQSAYYSNSGGHAFGGGTEVVVKG

binding [2]: binds
B4: antibody 3.1C1 (antibody, V domains shown)
VH: QVQLQQSGPELVKPGASVRISCKASGYTFTNYFIHWVKQRPGQGLEWIGWINPGNLNTKYTEEFKGKATLTADKSSSTAYIQLNSLTSEDSAVYFCVNGNPFVYWGQGTLVTVSA
VL: DIVMTQSPSSLTVIAGEKVTLNCKSSQSLLNSGNQKKYLTWLQQKPGQPPKLLIYWTSTRDSGVPDRFTGSGSGTDFTLTISSVQAEDLAVYYCQNDYSYPLTFGAGTKLEIKR

binding [5]: binds
binding [6]: binds
B5: antibody 3.6D12 (antibody, V domains shown)
VH: EVMLVESGGGLVRPGGSLKLSCTASGFTFSRCAMSWVRQTPEKRLEWVSAISRDSTYTYYSDSVKGRFTVSRDNAKNTLYLQMSSLRSEDTAMYYCARQIDDYYVDALDYWGQGTSVTVSS
VL: DVQITQSPSYLAASPGETITINCRASKIISKYLAWYQEKPGKTIKLLIYSGFTLQSGIPSRFSGSGSGTDFTLTISSLEPEDFAMYYCQQHNEYPLTFGAGTKLEIKR

binding [5]: binds
binding [6]: binds
B6: antibody 4.17A5 (antibody, V domains shown)
VH: QVQLQQSGPELLKPGASVKISCKGSGYAFSNSWINWVKLRPGQGLEWIGRIYPGDGDTKYNGKFKGKATLTADKSSSTAHMQLRSLTSVDSAVYFCARFPFGKYEGPGAMDYWGQGTSVTVSS
VL: DIQMTQTTSSLSASLGDRVTISCRASQDISSYLNWYQQKPDGTIKLLIYYTSRLHSGVPSRFSGSGSGTDFSLTISNLEQEDIATYFCQQGNTLPYTFGGGTKLEIKR

Continued, binder first:

B1: antibody 4.11H11 (antibody, V domains shown)
VH: EVQVQQSGPELVKPGASMKISCKASGYSFIVYTMNWVKQSHGKNLEWIGLINPYNGGTIYNRKFKGKATLTVDKSSSTAYLELLSLTSEDSAVYYCARGALYRYEGAMDYWGQGTSVIVSS
VL: QIVLSQFPAILSASPGEKVTMTCRASSSVIYVHWYQQKPGSSPKPWIYATSNLASGVPARFSGSGSGTSHSLTISRLEAEDTATYYCQQWSSNPLTFGAGTKLEIKR
binding [1]: binds

B2: antibody 3.3A8 (antibody, V domains shown)
VH: QVQFQQSGAELVRPGASVKVTCKALGYTFSNYEIHWVRQPPVHGLEWIGAIHPGNGVTAYNQMFKGRATLAADKSSSTAYMELSSLTSEDSAVYYCTENFDYWGQGTALTVSS
VL: DVVVTQTPLSLPVSFGDQVSISCRSSQSLTNSYGITYLSWFLLKPGQSPQLLIYEISNRFSGVPDRFSGSGSGTDFTLKISTIKPEDLGVYFCLQGTHQPFTFGAGTKLEIKR
binding [2]: binds

B7: antibody 3.7D6 (antibody, V domains shown)
VH: QIQLVQSGPDLKKPGETVKISCRTSGYAFTNYGVNWVKQAPGKGLKWMGWINTNTGQTTYAEEFRGRFAISLETSASTAFLTISNLKNEDSATYFCARLIYDGDYISSDFWGQGTTLTVSS
VL: DIQMTQSPDSLSASVGETVTITCGASENIYGALNWYQRKQGKSPQLLIYGATNLADGMSSRFSGSRSGRQYSLKISSLHPDDVATYYCQNALSMPYTFGGGTKLEIKR
binding [7]: binds
binding [5]: binds
binding [6]: binds
binding [8]: binds
binding [9]: binds
